Measured values: the supplement of paper PMC10849652
This is one part of the list.

By UniProt entry, the sequences of proteins in these tests, tags left out. Where a name states a change or a piece, a line headed by the entry shows the natural chain unless it says otherwise.
UniProt Q9H3H3: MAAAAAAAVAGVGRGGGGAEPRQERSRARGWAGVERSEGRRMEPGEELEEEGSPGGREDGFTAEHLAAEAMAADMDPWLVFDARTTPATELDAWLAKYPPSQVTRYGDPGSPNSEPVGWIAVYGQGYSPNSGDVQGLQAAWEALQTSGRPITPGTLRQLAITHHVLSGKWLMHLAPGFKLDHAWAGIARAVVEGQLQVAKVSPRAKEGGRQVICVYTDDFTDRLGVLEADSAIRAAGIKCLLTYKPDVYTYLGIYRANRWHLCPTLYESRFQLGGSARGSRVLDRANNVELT
UniProt Q96GQ5: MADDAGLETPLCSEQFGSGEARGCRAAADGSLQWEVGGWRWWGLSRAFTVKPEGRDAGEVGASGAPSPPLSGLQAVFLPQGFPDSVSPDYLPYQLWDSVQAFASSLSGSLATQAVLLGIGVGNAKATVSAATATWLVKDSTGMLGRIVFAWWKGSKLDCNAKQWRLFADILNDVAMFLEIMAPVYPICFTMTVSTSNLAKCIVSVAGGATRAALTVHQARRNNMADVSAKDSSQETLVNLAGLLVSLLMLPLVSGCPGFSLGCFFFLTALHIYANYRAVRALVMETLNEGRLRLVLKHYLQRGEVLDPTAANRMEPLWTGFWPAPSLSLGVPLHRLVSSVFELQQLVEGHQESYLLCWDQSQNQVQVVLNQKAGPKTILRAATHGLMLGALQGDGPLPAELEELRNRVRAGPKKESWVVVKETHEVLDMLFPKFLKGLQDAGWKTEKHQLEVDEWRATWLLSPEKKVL
UniProt P35613: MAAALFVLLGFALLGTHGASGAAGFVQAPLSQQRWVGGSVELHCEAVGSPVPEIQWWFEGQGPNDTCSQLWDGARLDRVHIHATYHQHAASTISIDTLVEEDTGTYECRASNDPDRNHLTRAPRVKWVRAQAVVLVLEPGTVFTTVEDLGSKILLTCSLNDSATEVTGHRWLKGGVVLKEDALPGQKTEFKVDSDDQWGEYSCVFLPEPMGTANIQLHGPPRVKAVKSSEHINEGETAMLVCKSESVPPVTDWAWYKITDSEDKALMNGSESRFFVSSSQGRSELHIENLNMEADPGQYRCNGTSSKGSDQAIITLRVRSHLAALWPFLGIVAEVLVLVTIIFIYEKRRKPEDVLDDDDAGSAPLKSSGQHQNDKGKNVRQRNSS
UniProt Q49AR2: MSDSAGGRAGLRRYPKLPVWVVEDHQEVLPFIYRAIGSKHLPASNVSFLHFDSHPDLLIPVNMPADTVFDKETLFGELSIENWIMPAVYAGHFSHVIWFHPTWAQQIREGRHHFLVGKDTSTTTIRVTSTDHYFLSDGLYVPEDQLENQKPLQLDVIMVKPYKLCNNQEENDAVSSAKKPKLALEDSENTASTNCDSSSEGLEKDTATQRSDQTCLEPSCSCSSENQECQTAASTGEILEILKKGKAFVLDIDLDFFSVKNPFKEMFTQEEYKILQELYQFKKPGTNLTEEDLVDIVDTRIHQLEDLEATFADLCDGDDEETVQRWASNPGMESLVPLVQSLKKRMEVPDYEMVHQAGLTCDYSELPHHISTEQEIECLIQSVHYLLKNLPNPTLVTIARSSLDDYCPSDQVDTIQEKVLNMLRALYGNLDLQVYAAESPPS
UniProt P40121: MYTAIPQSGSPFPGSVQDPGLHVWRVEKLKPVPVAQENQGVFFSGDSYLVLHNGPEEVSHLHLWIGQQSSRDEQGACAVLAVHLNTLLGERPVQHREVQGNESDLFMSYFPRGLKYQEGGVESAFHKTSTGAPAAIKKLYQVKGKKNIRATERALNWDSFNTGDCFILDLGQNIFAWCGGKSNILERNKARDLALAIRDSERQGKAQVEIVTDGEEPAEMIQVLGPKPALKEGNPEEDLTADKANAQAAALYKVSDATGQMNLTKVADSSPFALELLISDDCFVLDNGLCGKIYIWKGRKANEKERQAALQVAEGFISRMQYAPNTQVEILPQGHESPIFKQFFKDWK
UniProt Q86YS7: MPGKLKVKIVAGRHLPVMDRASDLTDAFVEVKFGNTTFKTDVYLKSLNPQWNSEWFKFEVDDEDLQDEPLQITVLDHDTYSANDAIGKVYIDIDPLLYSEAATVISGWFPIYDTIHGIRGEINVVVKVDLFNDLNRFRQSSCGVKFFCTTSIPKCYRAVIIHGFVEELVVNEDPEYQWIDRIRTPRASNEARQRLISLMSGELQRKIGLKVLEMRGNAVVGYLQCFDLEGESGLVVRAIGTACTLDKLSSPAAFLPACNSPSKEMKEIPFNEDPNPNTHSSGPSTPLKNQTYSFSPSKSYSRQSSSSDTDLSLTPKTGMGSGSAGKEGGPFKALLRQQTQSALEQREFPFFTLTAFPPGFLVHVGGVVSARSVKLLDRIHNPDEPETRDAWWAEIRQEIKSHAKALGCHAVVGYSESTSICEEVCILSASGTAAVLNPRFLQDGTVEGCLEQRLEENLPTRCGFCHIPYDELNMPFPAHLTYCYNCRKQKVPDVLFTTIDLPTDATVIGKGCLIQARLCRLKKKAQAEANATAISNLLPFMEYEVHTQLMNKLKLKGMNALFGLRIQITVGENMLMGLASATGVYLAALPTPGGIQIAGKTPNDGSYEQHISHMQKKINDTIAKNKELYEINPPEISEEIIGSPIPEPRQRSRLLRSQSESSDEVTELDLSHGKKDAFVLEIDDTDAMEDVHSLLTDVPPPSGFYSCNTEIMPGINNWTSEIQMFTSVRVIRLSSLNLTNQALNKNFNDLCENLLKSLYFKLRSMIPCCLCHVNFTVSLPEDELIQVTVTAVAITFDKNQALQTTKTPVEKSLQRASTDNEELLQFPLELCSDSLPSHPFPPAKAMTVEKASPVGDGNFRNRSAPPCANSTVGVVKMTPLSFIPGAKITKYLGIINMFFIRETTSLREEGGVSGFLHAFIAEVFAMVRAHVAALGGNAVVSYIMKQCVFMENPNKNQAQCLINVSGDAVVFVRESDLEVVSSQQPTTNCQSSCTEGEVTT
UniProt Q6UWU4: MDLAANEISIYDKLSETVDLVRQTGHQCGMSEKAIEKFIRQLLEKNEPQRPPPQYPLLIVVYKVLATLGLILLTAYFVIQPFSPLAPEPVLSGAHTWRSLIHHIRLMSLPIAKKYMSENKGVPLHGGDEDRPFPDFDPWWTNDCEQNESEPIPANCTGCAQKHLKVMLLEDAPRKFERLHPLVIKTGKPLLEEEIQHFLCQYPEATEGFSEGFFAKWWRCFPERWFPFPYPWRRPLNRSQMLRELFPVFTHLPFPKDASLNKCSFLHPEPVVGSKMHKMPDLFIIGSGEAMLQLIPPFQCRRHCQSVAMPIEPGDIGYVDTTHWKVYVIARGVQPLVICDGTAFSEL
UniProt O43852: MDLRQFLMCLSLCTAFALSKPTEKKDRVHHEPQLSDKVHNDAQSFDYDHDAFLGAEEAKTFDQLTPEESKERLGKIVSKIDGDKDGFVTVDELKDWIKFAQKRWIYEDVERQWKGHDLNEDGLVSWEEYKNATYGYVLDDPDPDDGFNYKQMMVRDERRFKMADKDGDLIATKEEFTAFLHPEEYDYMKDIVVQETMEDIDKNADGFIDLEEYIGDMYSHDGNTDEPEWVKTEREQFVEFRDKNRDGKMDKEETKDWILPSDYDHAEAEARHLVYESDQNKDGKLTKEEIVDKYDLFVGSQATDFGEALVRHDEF
UniProt O75155: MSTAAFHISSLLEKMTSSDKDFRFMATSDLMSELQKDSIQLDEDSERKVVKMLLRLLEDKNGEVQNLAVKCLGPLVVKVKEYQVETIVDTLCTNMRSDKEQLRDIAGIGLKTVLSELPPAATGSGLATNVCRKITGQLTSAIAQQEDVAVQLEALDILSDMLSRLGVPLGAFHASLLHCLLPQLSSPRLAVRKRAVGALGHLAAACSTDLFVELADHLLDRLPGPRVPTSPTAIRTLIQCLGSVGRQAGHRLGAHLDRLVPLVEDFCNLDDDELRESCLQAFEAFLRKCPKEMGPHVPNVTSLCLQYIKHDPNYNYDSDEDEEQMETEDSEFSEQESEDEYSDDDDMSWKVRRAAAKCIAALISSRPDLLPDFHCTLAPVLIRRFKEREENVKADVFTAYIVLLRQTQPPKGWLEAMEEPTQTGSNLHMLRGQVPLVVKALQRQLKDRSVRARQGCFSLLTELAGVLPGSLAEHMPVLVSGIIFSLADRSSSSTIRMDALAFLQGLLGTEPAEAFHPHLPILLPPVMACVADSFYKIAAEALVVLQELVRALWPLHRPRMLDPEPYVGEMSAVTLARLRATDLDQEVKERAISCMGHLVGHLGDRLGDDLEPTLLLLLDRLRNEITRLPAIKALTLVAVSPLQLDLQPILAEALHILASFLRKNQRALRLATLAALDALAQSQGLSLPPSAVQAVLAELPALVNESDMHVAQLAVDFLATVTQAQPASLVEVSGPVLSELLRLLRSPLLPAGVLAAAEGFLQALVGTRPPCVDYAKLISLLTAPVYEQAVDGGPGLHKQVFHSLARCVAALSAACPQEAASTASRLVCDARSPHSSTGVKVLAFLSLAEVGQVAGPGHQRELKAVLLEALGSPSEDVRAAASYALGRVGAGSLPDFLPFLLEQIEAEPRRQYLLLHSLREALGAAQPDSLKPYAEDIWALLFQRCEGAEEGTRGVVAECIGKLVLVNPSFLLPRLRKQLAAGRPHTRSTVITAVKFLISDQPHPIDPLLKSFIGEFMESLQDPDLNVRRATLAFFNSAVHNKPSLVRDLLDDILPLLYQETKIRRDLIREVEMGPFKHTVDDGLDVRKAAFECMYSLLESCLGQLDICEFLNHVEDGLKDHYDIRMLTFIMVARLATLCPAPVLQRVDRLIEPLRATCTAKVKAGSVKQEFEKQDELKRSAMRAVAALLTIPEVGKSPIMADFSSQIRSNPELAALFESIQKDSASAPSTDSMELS
UniProt O95873: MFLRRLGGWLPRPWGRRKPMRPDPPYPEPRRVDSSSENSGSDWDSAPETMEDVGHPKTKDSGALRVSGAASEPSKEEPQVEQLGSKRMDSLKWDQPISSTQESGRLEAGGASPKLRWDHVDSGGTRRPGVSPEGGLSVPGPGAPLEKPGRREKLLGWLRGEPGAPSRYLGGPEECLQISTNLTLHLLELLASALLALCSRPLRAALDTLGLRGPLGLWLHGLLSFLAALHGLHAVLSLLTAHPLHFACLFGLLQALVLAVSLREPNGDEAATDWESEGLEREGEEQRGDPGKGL
UniProt P41223: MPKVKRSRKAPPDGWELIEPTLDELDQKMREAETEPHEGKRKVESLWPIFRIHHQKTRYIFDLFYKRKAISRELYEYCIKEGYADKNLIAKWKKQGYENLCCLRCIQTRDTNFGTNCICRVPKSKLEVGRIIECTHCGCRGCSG
UniProt Q13555: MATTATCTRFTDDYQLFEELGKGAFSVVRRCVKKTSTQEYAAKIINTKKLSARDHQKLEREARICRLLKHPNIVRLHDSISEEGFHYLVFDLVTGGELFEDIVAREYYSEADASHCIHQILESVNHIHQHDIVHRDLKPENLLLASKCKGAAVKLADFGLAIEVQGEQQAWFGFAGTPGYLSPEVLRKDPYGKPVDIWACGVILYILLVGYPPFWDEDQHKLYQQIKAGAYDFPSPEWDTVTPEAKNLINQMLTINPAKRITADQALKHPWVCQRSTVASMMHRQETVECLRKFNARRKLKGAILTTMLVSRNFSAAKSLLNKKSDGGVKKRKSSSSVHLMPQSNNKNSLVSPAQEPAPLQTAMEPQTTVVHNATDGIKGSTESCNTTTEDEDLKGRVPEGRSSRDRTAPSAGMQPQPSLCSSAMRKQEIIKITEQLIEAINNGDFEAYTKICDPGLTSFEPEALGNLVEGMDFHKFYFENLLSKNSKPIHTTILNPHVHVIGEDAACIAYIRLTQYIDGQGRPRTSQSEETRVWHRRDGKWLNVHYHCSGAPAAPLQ
UniProt Q96KE9: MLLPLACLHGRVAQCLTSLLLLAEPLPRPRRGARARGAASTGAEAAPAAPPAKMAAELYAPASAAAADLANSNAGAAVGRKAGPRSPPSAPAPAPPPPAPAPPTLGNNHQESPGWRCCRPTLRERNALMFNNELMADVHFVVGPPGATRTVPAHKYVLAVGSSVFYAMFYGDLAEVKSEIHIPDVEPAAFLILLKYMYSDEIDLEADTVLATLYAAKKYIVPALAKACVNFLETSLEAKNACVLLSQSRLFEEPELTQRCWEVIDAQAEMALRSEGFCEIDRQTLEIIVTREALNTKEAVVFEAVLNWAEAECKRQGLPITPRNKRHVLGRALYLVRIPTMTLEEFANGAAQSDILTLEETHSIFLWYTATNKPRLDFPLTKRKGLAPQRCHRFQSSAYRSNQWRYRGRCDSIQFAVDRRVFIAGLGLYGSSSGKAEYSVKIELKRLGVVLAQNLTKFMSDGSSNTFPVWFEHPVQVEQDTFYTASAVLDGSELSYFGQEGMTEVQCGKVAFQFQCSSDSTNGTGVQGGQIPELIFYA

Columns and labels:
Assay in all cases: log2 fold change, soluble protein after heating vs DMSO (PISA); higher = thermal stabilisation; K562 cells, 10 uM, 30 min; active = over 0.2 and 3.5 SD of the protein, either way, in both replicates (recomputed)
erlotinib = compound: C#Cc1cccc(Nc2ncnc3cc(OCCOC)c(OCCOC)cc23)c1 [erlotinib]
Summary of the method: (§1)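 Values are thermal stability changes relative to control samples and are taken from duplicates. They are stated as log2 fold changes. Before quantification by TMTpro 16plex LC-MS/MS with equalised channel sums, K562 cells at 2×10^6 cells/mL were treated with 10 μM compound for 30 min, heated in aliquots for 3 min across 48°C-58°C, pooled, extracted in PBS with 0.5% NP-40 at 4°C, and centrifuged at 21,000xg for 90 min to give the soluble supernatant.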

[1] = compound: C/C(=N\NC(=O)C1=CC(=CC=C1)S(=O)(=O)N2CCOCC2)/C3=C(C=CC(=C3)Cl)O
Summary of the method: as §1

[2] = compound: C1=CC(=C(C=C1Cl)C2=NC3=NC=CN=C3C(=N2)NC4=CC=NC=C4)F
Summary of the method: as §1

[3] = compound: C1=CC(=CC=C1C2=NC3=C(N2)C=C(C=C3)C(=O)N)OC4=CC=C(C=C4)Cl
Summary of the method: as §1

[4] = compound: C1=CC2=C(C=CC(=C2)/C=C\3/C(=O)NC(=NCC4=CC=CS4)S3)N=C1
Summary of the method: as §1

[5] = compound: C1=CC2=NC=CN=C2C=C1/C=C/3\C(=O)NC(=O)S3
Summary of the method: as §1

[6] = compound: C1=CC=C(C=C1)C2=NC(=C(N2)C3=CC=NC=C3)C4=CC(=C(C=C4)Cl)O
Summary of the method: as §1

[7] = compound: C1=CC=C2C(=C1)C3=NNC4=CC=CC(=C43)C2=O
Summary of the method: as §1

[8] = compound: C1CCN(C1)C(=O)NC2=CC=CC(=C2)NC3=NC=C(C(=N3)NCCC4=CN=CN4)Br
Summary of the method: as §1

[9] = compound: C1CN(CCC1(CC2=CC=C(C=C2)Cl)N)C3=NC=NC4=C3C=CN4
Summary of the method: as §1

| Target | log2 fold change (erlotinib) | log2 fold change [1] | log2 fold change [2] | log2 fold change [3] | log2 fold change [4] | log2 fold change [5] | log2 fold change [6] | log2 fold change [7] | log2 fold change [8] | log2 fold change [9] |
| --- | --- | --- | --- | --- | --- | --- | --- | --- | --- | --- |
| C11orf68 (UniProt Q9H3H3) | inactive: -0.017 | inactive: 0.061 | inactive: 0.063 | inactive: 0.03 | inactive: 0.028 | inactive: 0.022 | inactive: 0.031 | inactive: 0.017 | inactive: -0.025 | inactive: 0.027 |
| C16orf58 (UniProt Q96GQ5) | inactive: 0.033 | inactive: 0.01 | inactive: 0.051 | inactive: 0.023 | inactive: 0.061 | inactive: 0.042 | inactive: -0.001 | inactive: -0.021 | inactive: 0.006 | inactive: 0.036 |
| C2CD2L (UniProt O14523) | inactive: -0.007 | inactive: 0.012 | inactive: 0.013 | inactive: 0.011 | inactive: 0.043 | inactive: 0.045 | inactive: -0.016 | inactive: -0.081 | inactive: 0.027 | inactive: 0.042 |
| BSG (UniProt P35613) | inactive: -0.002 | inactive: 0.008 | inactive: -0.004 | inactive: -0.016 | inactive: -0.001 | inactive: -0.013 | inactive: -0.013 | inactive: -0.069 | inactive: 0 | inactive: 0.058 |
| C5orf22 (UniProt Q49AR2) | inactive: 0.019 | inactive: -0.031 | inactive: 0.033 | inactive: 0.047 | inactive: 0.047 | inactive: 0.017 | inactive: 0.043 | inactive: 0.05 | inactive: -0.013 | inactive: 0.005 |
| CAPG (UniProt P40121) | inactive: 0.001 | inactive: 0.055 | inactive: 0.071 | inactive: -0.035 | inactive: -0.017 | inactive: 0.063 | inactive: 0.038 | inactive: 0.029 | inactive: -0.047 | inactive: -0.015 |
| C2CD5 isoform 4 (UniProt Q86YS7) | inactive: 0.146 | inactive: -0.161 | inactive: -0.006 | inactive: -0.075 | inactive: 0.001 | inactive: -0.077 | inactive: 0.027 | inactive: -0.014 | inactive: -0.019 | inactive: -0.06 |
| C6orf89 isoform 2 (UniProt Q6UWU4) | inactive: -0.053 | inactive: 0.072 | inactive: 0 | inactive: 0.044 | inactive: 0.028 | inactive: 0.056 | inactive: -0.042 | inactive: -0.032 | inactive: -0.021 | inactive: 0.006 |
| CALU isoform 3 (UniProt O43852) | inactive: 0.012 | inactive: -0.018 | inactive: 0.029 | inactive: -0.017 | inactive: -0.027 | inactive: 0.034 | inactive: -0.046 | inactive: -0.027 | inactive: 0.049 | inactive: 0.048 |
| CAND2 (UniProt O75155) | inactive: 0.025 | inactive: -0.079 | inactive: 0.043 | inactive: -0.036 | inactive: -0.101 | inactive: 0.033 | inactive: 0.021 | inactive: -0.062 | inactive: 0.052 | inactive: 0.063 |
| C6orf47 (UniProt O95873) | inactive: -0.01 | inactive: -0.025 | inactive: 0.044 | inactive: 0.038 | inactive: 0.04 | inactive: 0.067 | inactive: -0.029 | inactive: -0.008 | inactive: 0.022 | inactive: 0.058 |
| BUD31 (UniProt P41223) | inactive: -0.027 | inactive: 0.084 | inactive: 0.007 | inactive: 0.026 | inactive: -0.097 | inactive: -0.003 | inactive: 0.038 | inactive: 0.007 | inactive: -0.05 | inactive: 0.077 |
| CAMK2G isoform 6 (UniProt Q13555) | inactive: -0.003 | inactive: -0.096 | inactive: -0.047 | inactive: -0.098 | inactive: 0.054 | inactive: 0.009 | inactive: 0.055 | inactive: 0.08 | inactive: -0.02 | inactive: 0.015 |
| BTBD6 (UniProt Q96KE9) | inactive: 0.407 | active: -0.706 | inactive: 0.165 | inactive: -0.188 | inactive: 0.016 | inactive: -0.057 | inactive: 0.3 | inactive: 0.081 | inactive: -0.19 | inactive: 0.185 |

Two entries from above, tab-delimited.
Target	log2 fold change (erlotinib)	log2 fold change [1]	log2 fold change [2]	log2 fold change [3]	log2 fold change [4]	log2 fold change [5]	log2 fold change [6]	log2 fold change [7]	log2 fold change [8]	log2 fold change [9]
C11orf68 (UniProt Q9H3H3)	inactive: -0.017	inactive: 0.061	inactive: 0.063	inactive: 0.03	inactive: 0.028	inactive: 0.022	inactive: 0.031	inactive: 0.017	inactive: -0.025	inactive: 0.027
C16orf58 (UniProt Q96GQ5)	inactive: 0.033	inactive: 0.01	inactive: 0.051	inactive: 0.023	inactive: 0.061	inactive: 0.042	inactive: -0.001	inactive: -0.021	inactive: 0.006	inactive: 0.036
